PubChem BioAssay AID686937 | Drosophila RNAi Screening Center | 2013

- Test: 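Genes whose loss weakens secretory pathway function in fly cells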 (primary screen)
- Cells: Drosophila S2 cells expressing secreted horseradish peroxidase
- Knock-down reagent: long dsRNA against Drosophila genes
- Duration: about 5.5 days (5 days dsRNA, then 12 h reporter induction)
- Conditions: reporter expression induced after 5 days of dsRNA, read 12 h later; inducer not stated
- Measured: 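After 5 days of dsRNA and 12 h of reporter induction, medium peroxidase read by chemiluminescence and scored as per-plate z-score; higher values mean more reporter released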
- Scale: z-score: higher = more reporter secreted into medium
The screen tested about 23,000 reagents; this is an unselected part of those with a known target gene and a result. 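Reduced-secretion tags in replicate 1 do not always agree with the z-scores; no criterion for assigning the tags was given.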 The numbers tell different reagents against one gene apart. Names joined by + are all predicted targets of the reagent. Not all columns of the deposit are shown. No sequences are given here. The record does not give: the amount of reagent.

target gene | reagent | z-score, replicate 1
aqz + CG9837 | 1 | 0.31
Sirt7 | 1 | 0.54
Ir48c | 1 | -2.37
CG12290 | 1 | 0.25
CG6788 + CR32496 | 1 | 0.02
CG30393 | 1 | 0.42
CG42586 + CG31775 | 1 | -3.3
CAH5 | 1 | -0.16
l(2)09851 | 1 | 0.05
Drip | 1 | 0.47
Sbat | 1 | 0.42
Sps1 | 1 | -0.77
CG18549 | 1 | 0.35
Syx5 | 1 | -6.09
CG7407 | 1 | 0.5
CG32248 | 1 | -0.06
CG9752 | 1 | -0.03
IKKepsilon | 1 | 0.17
fs(1)Ya | 1 | 0.19
CG42564 | 1 | 0.28
CG13465 | 1 | 0.41
lmd | 1 | 0.03
CG15111 | 1 | 1.15
CG13323 | 1 | 0
CG17343 | 1 | 0.17
CG17343 | 2 | -0.54
nesd | 1 | 0.23
CG1316 | 1 | -0.67
yellow-e3 | 1 | 0.61
CG14232 | 1 | 0.34
CG12374 | 1 | 0.24
Mettl14 | 1 | 0.32
CG18135 | 1 | 0.12
Hyccin | 1 | 0.52
Aldh-III | 1 | -0.13
CG32276 | 1 | 0.19
CG15203 | 1 | 0.21
CG13659 | 1 | 0.24
Galt | 1 | 0.37

Continued, starting with the last 9 of the part before.
target gene | reagent | z-score, replicate 1
CG12374 | 1 | 0.24
Mettl14 | 1 | 0.32
CG18135 | 1 | 0.12
Hyccin | 1 | 0.52
Aldh-III | 1 | -0.13
CG32276 | 1 | 0.19
CG15203 | 1 | 0.21
CG13659 | 1 | 0.24
Galt | 1 | 0.37
CG6282 | 1 | 0.22
CG13239 | 1 | 0.24
CG15561 | 1 | 0.47
CG1161 | 1 | -2.52
CG15124 | 1 | 0.49
CG2614 | 1 | 0.64
NitFhit | 1 | 0.37
BobA | 1 | 0.08
CG31664 | 1 | -0.11
CG18269 | 1 | 0
LPCAT | 1 | -1.03
LPCAT | 2 | 0.45
CG15034 | 1 | 0.2
Xport-A + Xport-B | 1 | 0.39
CG13223 | 1 | 0.08
S-Lap3 | 1 | 0.16
meep | 1 | 0.72
Rbcn-3A | 1 | 0.44
CG15767 | 1 | 0.24
CG1764 | 1 | 0.22
CG13398 | 1 | 0.42
CG31861 | 1 | 0.4
CG18557 | 1 | 0.12
Pen | 1 | 0.44
Coa8 | 1 | 0.13
CG3860 | 1 | 0.27
CG6432 | 1 | 0.1
CG33722 + CG18749 | 1 | 0.27
CG33722 + CG18749 | 2 | 0.32
ics | 1 | 0.52
MnM | 1 | 0.24
CG42268 | 1 | 0.26
CG42268 | 2 | 0.01
CG42268 | 3 | -1.48
CG31126 | 1 | 0.4
lncRNA:CR43491 | 1 | 0.12
CG32645 | 1 | 0.5
CG32645 | 2 | 0.31
CG1532 | 1 | 0.34
Acat1 | 1 | 0.27
CG11555 | 1 | 0.08
CG15345 (retired record) | 1 | -0.18
CG15345 (retired record) | 2 | 0.14
